This test relates to E18 rat cortical neuron-glia co-culture. Briefly: total nuclei (DAPI) / Olig2+ nuclei (ratio); higher = more depletion of OPC/OL lineage cells. The settings on record: treatment time: 8 days (DIV5-DIV13).

Experimental findings from the supplement of paper PMC4840960 are described below.

± gives the standard deviation of the averaged measurements. This is one part of the list. Plates or batches differ in their baseline, so values are only roughly comparable. Bounds are passed on as bounds.

For `CN(C)CCc1c[nH]c2ccc(C[C@H]3COC(=O)N3)cc12` [Zolmitriptan], the total nuclei is 2.72 (1 µM) and 2.8 (5 µM).
For `Nc1ccc(S(=O)(=O)c2ccc(N)cc2)cc1` [Dapsone] the same measures were 4.49 and 3.7.
With `Nc1ccc(O)c(C(=O)O)c1` [Mesalamine], the total nuclei reads like this: (1 µM) 4.34; (5 µM) 4.1.
`CC1(C)S[C@@H]2[C@H](NC(=O)[C@H](N)c3ccc(O)cc3)C(=O)N2[C@H]1C(=O)O` [Amoxicillin]: the total nuclei turned out to be 2.88 (1 µM) and 2.9 (5 µM).
For `CCOC(=O)[C@H](CCc1ccccc1)N[C@H]1CCc2ccccc2N(CC(=O)O)C1=O` [Benazepril] the same measures were 3.01 and 3.
The matching figures for `O=C1CCc2ccc(OCCCCN3CCN(c4cccc(Cl)c4Cl)CC3)cc2N1` [Aripiprazole]: 4.03 and greater than 40.
For `O=C(O)c1cc(=O)c2c(OCC(O)COc3cccc4oc(C(=O)O)cc(=O)c34)cccc2o1` [Cromolyn Sodium] the same measures were 5.49 and 4.2.
`CS(=O)(=O)c1ccc(C2=C(c3ccccc3)C(=O)OC2)cc1` [Rofecoxib]: the total nuclei reads like this: (1 µM) greater than 40; (5 µM) greater than 40.
Regarding `OC(CCN1CCCC1)(c1ccccc1)C1CCCCC1` (centres undefined) [Procyclidine], the total nuclei is, setting by setting: (1 µM) 2.91; (5 µM) 3.1.
The matching figures for `CC1COc2c(N3CCN(C)CC3)c(F)cc3c(=O)c(C(=O)O)cn1c23` (centres undefined) [Ofloxacin]: 4.11 ± 0.5 and 4.25 ± 0.49.
Regarding `Fc1ccc([C@@H]2CCNC[C@H]2COc2ccc3c(c2)OCO3)cc1` [Paroxetine], the total nuclei reads like this: (1 µM) 4.39 ± 2.9; (5 µM) 7.25 ± 6.
As to `CC(C)(C)NC(=O)[C@@H]1CN(Cc2cccnc2)CCN1C[C@@H](O)C[C@@H](Cc1ccccc1)C(=O)N[C@H]1c2ccccc2C[C@H]1O` [Indinavir], the total nuclei reads like this: (1 µM) 5.52; (5 µM) 6.2.
The matching figures for `C[C@H](CCC(=O)O)[C@H]1CC[C@H]2[C@@H]3C(=O)C[C@@H]4CC(=O)CC[C@]4(C)[C@H]3CC(=O)[C@]12C` [Dehydrocholic Acid]: 3.06 and 2.8.
For `Cc1nc(=O)c2cc(CN(C)c3ccc(C(=O)N[C@@H](CCC(=O)O)C(=O)O)s3)ccc2[nH]1` [Raltitrexed] the same measures were 9.32 and 18.9.
`Cc1ccsc1C(=CCCN1CCC[C@@H](C(=O)O)C1)c1sccc1C` [Tiagabine]: the total nuclei is, setting by setting: (1 µM) 3.85; (5 µM) 4.1.
Consider `Cc1occc(=O)c1O` [Maltol], for which the total nuclei came to 2.81 (1 µM) and 2.9 (5 µM).
For `C[C@]12CCC(=O)C=C1CC[C@@H]1[C@@H]2CC[C@@]2(C)[C@H]1CC[C@]2(O)C(=O)CO` [Cortodoxone] the same measures were 2.7 and 2.8.
On to `CN1CCN(c2nc3cc(C(F)(F)F)ccc3n3cccc23)CC1`, for which the total nuclei is, setting by setting: (1 µM) 4.5; (5 µM) 13.4.
`C[C@@H]1C[C@H]2[C@@H]3CCC4=CC(=O)C=C[C@]4(C)[C@@]3(F)[C@@H](O)C[C@]2(C)[C@@]1(O)C(=O)CO` [Dexamethazone]: the total nuclei by setting is: (1 µM) 4.4; (5 µM) 4.3.
On to `COC(=O)C1=C(C)NC(C)=C(C(=O)OC(C)C)C1c1cccc2nonc12` (centres undefined) [Isradipine], for which the total nuclei reads like this: (1 µM) 2.67; (5 µM) 24.9.
For `CC(C(O)c1ccc(O)cc1)N1CCC(Cc2ccccc2)CC1` (centres undefined) [Ifenprodil] the same measures were 4.02 and 4.9.
Turning to `Cc1ccccc1C(OCCN(C)C)c1ccccc1` (centres undefined) [Orphenadrine], the total nuclei is 3.65 ± 0.078 (1 µM) and 4.25 ± 0.21 (5 µM).
With `O=C1NC(C(=O)O)CS1` (centres undefined) [2-oxothiazolidine-4-carboxylic acid], the total nuclei was 5.43 (1 µM) and 4.1 (5 µM).
In the case of `CCCC(CCC)C(=O)O` [Valproic Acid], the total nuclei turned out to be 2.8 (1 µM) and 2.8 (5 µM).
In the case of `CC(C)[C@H]1CC[C@H](C(=O)N[C@H](Cc2ccccc2)C(=O)O)CC1` [Nateglinide], the total nuclei (1 µM) came out at 4.05 and the total nuclei (5 µM) was 4.1.
`C=C1/C(=C\C=C2/CCC[C@]3(C)[C@@H]([C@H](C)/C=C/[C@@H](O)C4CC4)CC[C@@H]23)C[C@@H](O)C[C@@H]1O` [Calcipotriene]: the total nuclei by setting is: (1 µM) 4; (5 µM) 11.8.
With `Cn1cnc([N+](=O)[O-])c1Sc1ncnc2[nH]cnc12` [Azathioprine], the total nuclei runs as follows: (1 µM) 2.93; (5 µM) 2.9.
In the case of `CC(C)c1nc(CN(C)C(=O)N[C@H](C(=O)N[C@@H](Cc2ccccc2)C[C@H](O)[C@H](Cc2ccccc2)NC(=O)OCc2cncs2)C(C)C)cs1` [Ritonavir], the total nuclei runs as follows: (1 µM) 2.8; (5 µM) 3.4.
For the compound `NS(=O)(=O)c1cc2c(cc1Cl)NCNS2(=O)=O` [Hydrochlorothiazide], the total nuclei runs as follows: (1 µM) 3.77; (5 µM) 3.6.
The matching figures for `CC(=O)/N=c1/sc(S(N)(=O)=O)nn1C` [Methazolamide]: 2.27 and 2.6.
The matching figures for `NC(N)=Nc1nc(CSCC/C(N)=N/S(N)(=O)=O)cs1` [Famotidine]: 4.9 and 4.8.
Regarding `CC(N/C(=N\C#N)Nc1ccncc1)C(C)(C)C` (centres undefined) [Pinacidil], the total nuclei reads like this: (1 µM) 2.7; (5 µM) 3.1.
